According to the supplement of paper PMC10735217:
Structures can show the parent of a compound that is named as a salt. The list shows a part of the results. Single values are uncertain here, since repeats match poorly.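 The human kidney-derived cells carry a stably integrated construct of eight TEAD-binding elements driving luciferase, read by luminescence in a drug-repurposing library screen. A compound counts as a hit when its signal is more than five robust Z scores above the plate mean.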

Tested on: HEK293A TEAD-LUC reporter
Assay: TEAD-luciferase reporter activity (YAP activation), robust Z score vs plate; higher = stronger YAP/TEAD activation
Conditions: 24 h

Structure (SMILES) | TEAD-luciferase reporter activity (compound concentration: 200 nM) | TEAD-luciferase reporter activity (compound concentration: 10 uM) | TEAD-luciferase reporter activity (compound concentration: 2 uM)
O=C(c1ccc(Oc2ccccc2)cc1Cl)c1c[nH]c2ncnc(N[C@@H]3CC[C@@H](CO)OC3)c12 | inactive: -1.33 | inactive: -1.17 | 
OCc1ccc2c(c1)C(N1CCC(O)(c3ccccc3)CC1)c1ccccc1CO2 (stereo not given) | inactive: -1.25 | inactive: 2.71 | inactive: 0.541
CCCCN(CCC1CCCCC1)Cc1ccc(C(=O)N[C@@H](CCSC)C(=O)O)c(-c2ccccc2C)c1 | inactive: -0.118 | inactive: 2.37 | inactive: 0.286
O=C(O)C1=Cc2sc(Cn3ccnc3)cc2CC1 [Imitrodast sodium] | inactive: 0.518 | inactive: -0.0819 | inactive: -0.656
O=C(O)Cc1ccc(C2CCCCC2)cc1 | inactive: -1.22 | inactive: -1.8 | inactive: 1.2
CC(=O)OCC1=C(C(=O)O)N2C(=O)C(NC(=O)Cc3ccccc3)C2SC1 (stereo not given) | inactive: -0.275 | inactive: -1.12 | inactive: 0.132
COC(=O)C(N)Cc1ccc(Oc2ccc(/C=C3/SC(=O)NC3=O)cc2)cc1 (stereo not given) | inactive: -2.18 | inactive: -0.416 | inactive: -0.339
CC(C)C=O [Isobutyraldehyde] |  | inactive: -1.31 | inactive: 0.616
Nc1ccn(C[C@@H]2COP(=O)(O)CO2)c(=O)n1 | inactive: -0.238 | inactive: -0.548 | inactive: -1.39
CCC(=O)OC(CC(=O)O)C[N+](C)(C)C [propionyl L-carnitine, Sigma] | inactive: 1.27 | inactive: -0.178 | 
CCC(=O)OC(CC(=O)O)C[N+](C)(C)C [propionyl L-carnitine] |  |  | inactive: -1.23
COC[C@H](C)Oc1cc(Oc2cnc(C(=O)N3CCC3)cn2)cc(C(=O)Nc2ccc(OC)cc2)c1 | inactive: 1.13 | inactive: -0.313 | inactive: -1.2
O=C(O)[C@H]1C2CCC(CC2)[C@@H]1Nc1nc(-c2c[nH]c3ncc(F)cc23)ncc1F [Pimodivir] | inactive: 2.15 | inactive: -0.524 | inactive: -1.32
Cc1nc(N)c2cc(-n3nc(C(F)(F)F)cc3C(=O)Nc3ccc(-c4ccccc4S(N)(=O)=O)cc3F)ccc2n1 | inactive: 0.312 | inactive: -1.53 | inactive: -2.32
CN(CCN1CCC(OC(=O)Nc2ccccc2-c2ccccc2)CC1)C(=O)c1ccc(CN2CCC(C(N)=O)CC2)cc1 [Revefenacin] | inactive: -1 | inactive: -0.276 | inactive: -0.705
COCc1nnc(-c2cccnc2)n1-c1c(Cl)c(Cl)cc2c1=NC(=O)C(=O)N=2 | inactive: -0.474 | inactive: -0.499 | inactive: 2.27
CC(C)(C)NC(=O)[C@H]1CC[C@H]2[C@@H]3CC[C@H]4NC(=O)C=C[C@]4(C)[C@H]3CC[C@]12C [finasteride] |  |  | inactive: -1.36
CC(C)(C)NC(=O)[C@H]1CC[C@H]2[C@@H]3CC[C@H]4NC(=O)C=C[C@]4(C)[C@H]3CC[C@]12C | inactive: -0.926 | inactive: -0.315 | 
COC(=O)C1=C(C)NC(C)=C(P2(=O)OCCCO2)C1c1ccccc1[N+](=O)[O-] (stereo not given) | inactive: -1.3 | inactive: 0.293 | inactive: -0.962
CCCCCOc1ccc(-c2ccc(-c3ccc(C(=O)N[C@H]4C[C@@H](O)[C@@H](O)NC(=O)[C@@H]5[C@@H](O)[C@@H](C)CN5C(=O)[C@H]([C@@H](C)O)NC(=O)[C@H]([C@H](O)[C@@H](O)c5ccc(O)cc5)NC(=O)[C@@H]5C[C@@H](O)CN5C(=O)[C@H]([C@@H](C)O)NC4=O)cc3)cc2)cc1 [Anidulafungin] | inactive: -0.743 | inactive: -0.327 | inactive: 0.239
CCCCCOc1ccc(-c2ccc(-c3ccc(C(=O)N[C@H]4C[C@@H](O)[C@@H](O)NC(=O)[C@@H]5[C@@H](O)[C@@H](C)CN5C(=O)[C@H]([C@@H](C)O)NC(=O)[C@H]([C@H](O)[C@@H](O)c5ccc(O)cc5)NC(=O)[C@@H]5C[C@@H](O)CN5C(=O)[C@H]([C@@H](C)O)NC4=O)cc3)cc2)cc1 [anidulafungin] |  |  | inactive: 0.913
O=C(Nc1ccccc1)OCC1(COC(=O)Nc2ccccc2)CCCC1 | inactive: 1.72 | inactive: 1.9 | inactive: -1.37
CCCCC(CC)C/N=C(/N)N/C(N)=N/CCCCCC/N=C(/N)N/C(N)=N/CC(CC)CCCC (stereo not given) [Alexidine dihydrochloride] | inactive: 1.66 | inactive: -1.17 | inactive: -1.37
Cc1cc(C)c(C(=O)COC(=O)Cn2cnc3c2c(=O)n(C)c(=O)n3C)cc1C | inactive: 0.0301 | inactive: -1.1 | inactive: -0.851
CN(C)CCC(Oc1ccccc1OCc1ccccc1)c1ccccc1 (stereo not given) | inactive: -1.36 | inactive: 1.61 | inactive: -1.05
Cc1nc(Cl)c(Cl)n1CCCCN1CCN(c2ncc(F)cn2)CC1 | inactive: -0.168 | inactive: 1.93 | inactive: -1.1
CCOP(=O)(OCC)C(CNc1ccc(C)nc1C)c1cc(C)c(O)c(OC)c1 (stereo not given) | inactive: -0.174 | inactive: 2.96 | inactive: 0.201
CC(C)C[C@H]1C(=O)O[C@H](Cc2ccc(N3CCOCC3)cc2)C(=O)N(C)[C@@H](CC(C)C)C(=O)O[C@H](C)C(=O)N(C)[C@@H](CC(C)C)C(=O)O[C@H](Cc2ccc(N3CCOCC3)cc2)C(=O)N(C)[C@@H](CC(C)C)C(=O)O[C@H](C)C(=O)N1C [Emodepside] | inactive: 0.123 | inactive: 1.03 | inactive: -1.01
COC(=O)C1=C(C)NC(C)=C(C(=O)OCCCN2CCC(c3ccccc3)(c3ccccc3)CC2)[C@@H]1c1cccc([N+](=O)[O-])c1 [dexniguldipine] | inactive: -0.533 | inactive: -0.253 | inactive: -1.64
CCC(C)[C@H](NC(=O)C[C@H](O)[C@H](CC1CCCCC1)NC(=O)CCNC(=O)[C@H](Cc1ccccc1)NC(=O)N1CCC(N)CC1)C(=O)NCc1cnc(C)nc1N (stereo not given in full) | inactive: -0.543 | inactive: -0.095 | inactive: -0.568

2 records drawn at random from the list so far:
Structure (SMILES) | TEAD-luciferase reporter activity (compound concentration: 200 nM) | TEAD-luciferase reporter activity (compound concentration: 10 uM) | TEAD-luciferase reporter activity (compound concentration: 2 uM)
O=C(O)C1=Cc2sc(Cn3ccnc3)cc2CC1 [Imitrodast sodium] | inactive: 0.518 | inactive: -0.0819 | inactive: -0.656
CC(C)C=O [Isobutyraldehyde] |  | inactive: -1.31 | inactive: 0.616
